Laboratory results: PubChem BioAssay AID1487 (National Center for Advancing Translational Sciences (NCATS), 2009)
Some of the results follow. These are further read-outs of the screen, such as a control signal, another cell line or another target. No call is given for them. Compounds called inactive in the main read-out are mostly missing here. Words in brackets tell the shape of the fitted curve; partial curves, single points and poor fits give uncertain potencies.

Assay: qHTS Assay for Modulators of Lamin A Splicing
Conditions: HeLa LMNA splicing GFP/RFP minigene ratio, 48 h
Outline: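 S3 HeLa cells stably expressing lamin A-EGFP splicing minigene plus DsRed2, 600 cells/well, 48 h compound exposure at 37C. Laser-scanning cytometry; analysed as GFP (500-530 nm)/RFP (575-640 nm) total intensity ratio; 0.5% DMSO vehicle.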

[1] = measured here: RFP viability control channel
[2] = measured here: GFP splicing reporter channel

Compound	AC50 [1]	AC50 [2]
CCOC(=O)c1c(C)nc(C(Cl)(Cl)Cl)nc1N	2 µM [rising, full curve, poor fit]	
N#Cc1ccc(C(=O)Nc2ccc(S(=O)(=O)NC3=NCCCCC3)cc2)cc1	14.1 µM [rising, single point]	
O=C(NCc1cccs1)c1cc(-c2ccccc2)nc2ccccc12	20 µM [rising, single point]	
CCCc1nc(SCc2cc(=O)c3ccc(C)c(C)c3[nH]2)n[nH]1		0.282 µM [rising, full curve, poor fit]
COc1ccc(/C=N\NC(=O)c2cccc(Br)c2)c(OC)c1		0.0447 µM [rising, full curve, poor fit]
COc1ccc(C(CNC(=O)COc2ccc(Br)cc2F)N2CCCC2)cc1 (centres undefined)	0.398 µM [rising, partial curve]	
O=C(Nc1cccs1)Nc1ccc(Br)cc1F	10 µM [rising, partial curve, poor fit]	
O=C(CCC(=O)N(CC(=O)NC1CCCC1)C1CCCC1)Nc1ccccn1	2.51 µM [falling, partial curve]	
CCOc1ccc(N2CC(NC(=O)c3ccc(S(=O)(=O)N4CCCCC4)cc3)CC2=O)cc1 (centres undefined)	10 µM [falling, partial curve, poor fit]	
Cc1cccc(-c2cc(C(=O)NCCCn3ccnc3)c3ccccc3n2)c1	12.6 µM [rising, single point]	
Cc1ccc(/C=N/NS(=O)(=O)c2ccccc2)o1	3.98 µM [falling, full curve]	
CC(=O)c1c(C)[nH]c(C(=O)OCC(=O)Nc2cccc(S(=O)(=O)N3CCCC3)c2)c1C	3.55 µM [rising, full curve]	
CCOC(=O)C(=CNc1cc(C)nn1-c1ccccc1)C(=O)OCC	17.8 µM [rising, single point]	17.8 µM [rising, partial curve]
O=C(C1=C(O)C(=O)N(CCOCCO)C1c1cccs1)c1cccs1 (centres undefined)	2 µM [falling, full curve, poor fit]	
COc1ccccc1N(C)S(=O)(=O)c1ccc(C(=O)OCC(N)=O)cc1		0.794 µM [falling, single point]
Cc1cc(NC(=O)c2cc(-c3cccs3)on2)nn1Cc1ccc(Cl)cc1	3.55 µM [rising, single point]	2.82 µM [rising, full curve, poor fit]
Cc1ccc(C2=NN(S(C)(=O)=O)C(c3ccc4c(c3)OCO4)C2)cc1 (centres undefined)	14.1 µM [rising, single point]	

Reprinted at random: two entries already listed
Compound	AC50 [1]	AC50 [2]
COc1ccc(C(CNC(=O)COc2ccc(Br)cc2F)N2CCCC2)cc1 (centres undefined)	0.398 µM [rising, partial curve]	
COc1ccc(/C=N\NC(=O)c2cccc(Br)c2)c(OC)c1		0.0447 µM [rising, full curve, poor fit]
